PubChem BioAssay AID720505 | Drosophila RNAi Screening Center – 2013
The screen tested about 20,000 reagents; below is a random part of those that have a named target and a result. Over the whole deposit, about 2,100 (10%) were called active. 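Raw plate signals without normalisation; calls rest on control-based scores that were not deposited; replicate 2 separates called from uncalled poorly.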 A number with no mark means an inactive call. Reagent sequences are not shown. The record does not give: the amount of reagent, the time to read-out.

Aim: 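Fly regulators or components of the CRAC channel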 (primary screen)
Cells: Drosophila S2R+ cells
Knock-down reagent: long dsRNA against Drosophila genes
Challenge: thapsigargin (2 µM) in calcium-free buffer to empty internal stores, then 2 mM calcium added back
Measurement: 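Fluo-4 signal in 384-well plates read on a FLIPR after thapsigargin (2 µM, calcium-free) store depletion and 2 mM calcium add-back; unnormalised mean endpoint per well; screen run twice, selected wells retested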
Scale: calcium signal and retest calcium signal: higher = more calcium entry after store depletion
Active means: 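About 1500 genes called as lowering calcium entry, by varying amounts, judged against per-plate control wells with STIM1 as positive and Rho1 as negative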
Calls: active = called as lowering calcium entry; inactive = not called

no.	gene	dsRNA	calcium signal, replicate 1	calcium signal, replicate 2	retest calcium signal, replicate 1	retest calcium signal, replicate 2
1	CG3611	DRSC04395	132	160		
2	Nrk (Neurospecific receptor kinase)	DRSC07480	144	113		
3	GLaz (Glial Lazarillo)	DRSC07431	83	144		
4	Noc2 (Nucleolar complex protein 2)	DRSC03165	83.2	95.5		
5	CG15403	DRSC00417	111	90.3		
6	Seipin	DRSC18654	95	138		
7	Dhps (Deoxyhypusine synthase)	DRSC10948	93.5	99.6		
8	CG32829	DRSC00961	65.6	130	7732	170
9	CG32829	DRSC22805	82	115		
10	Or94a (Odorant receptor 94a)	DRSC16772	246	222		
11	CG40191	DRSC21041	61.6	105		
12	Nprl3 (Nitrogen permease regulator-like 3)	DRSC11044	63 (active)	87.9		
13	Rpt2 (Regulatory particle triple-A ATPase 2)	DRSC16799	179	205		
14	LysE (Lysozyme E)	DRSC08675	80.4	106		
15	Tep5Psi (Thioester-containing protein 5 pseudogene)	DRSC02183	65.5	187		
16	Tep5Psi (Thioester-containing protein 5 pseudogene)	DRSC02184	182	79.9		
17	DIP-iota (Dpr-interacting protein iota)	DRSC02140	121	96.9		
18	yellow-d	DRSC04589	95.2	168		
19	Oatp58Db (Organic anion transporting polypeptide 58Db)	DRSC04364	204	88.5		
20	CG42582 (retired record)	DRSC20675	88.1	9808		
21	CG18635	DRSC06780	143	133		
22	CG17134	DRSC02583	111	125		
23	Sdhaf3 (Succinate dehydrogenase assembly factor 3)	DRSC15020	78.2	149		
24	CG13894	DRSC08364	78.8	52.7		
25	CG13894	DRSC23205	121	175		
26	CG9993	DRSC04599	171	102		
27	Parp16 (Poly(ADP-ribose) polymerase 16)	DRSC06597	144	116		
28	Uba5 (Ubiquitin-like activating enzyme 5)	DRSC19775	83.3	88.3		
29	Nmdmc (NAD-dependent methylenetetrahydrofolate dehydrogenase)	DRSC16760	110	154		
30	CG7335	DRSC10816	88.9	144		
31	p47	DRSC06046	66.2 (active)	213		
32	Mipp1 (Multiple inositol polyphosphate phosphatase 1)	DRSC11223	103	106		
33	Taf10b (TBP-associated factor 10b)	DRSC00792	158	116		
34	para (paralytic)	DRSC19141	96.4	112		
35	para (paralytic)	DRSC20360	105	97.3		
36	CG12134	DRSC06109	81.3	108		
37	ect (ectodermal)	DRSC10675	94.3	96.4	7433	93.1
38	ect (ectodermal)	DRSC11343	110	109		
39	ect (ectodermal)	DRSC22357	98.6	230		
40	CG2121	DRSC06819	211	133		
41	CG2121	DRSC06820	98.5	159		
42	CG13285	DRSC09960	93.2	74.9		
43	GstT4 (Glutathione S transferase T4)	DRSC19757	118	153		
44	aust (australin)	DRSC02558	179	136		
45	Taz (Tafazzin)	DRSC07704	123	169	111	123
46	Taz (Tafazzin)	DRSC22625	123	220		
47	ben (bendless)	DRSC20310	97.3	84.5		
48	ben (bendless)	DRSC21261	154	85.6		
49	Osi13 (Osiris 13)	DRSC12281	104	116		
50	MESR4 (Misexpression suppressor of ras 4)	DRSC06901	152	105		
51	MFS16 (Major Facilitator Superfamily Transporter 16)	DRSC04051	113	75.1		
52	CG4766	DRSC17736	242	120		
53	Or47a (Odorant receptor 47a)	DRSC07491	84.5	134		
54	CG17059	DRSC06654	121	148		
55	CG3609	DRSC00620	165	171		
56	Gr93b (Gustatory receptor 93b)	DRSC22063	99	270		

Limited to “calcium signal, replicate 2”, for 8 of the entries above:
Nrk (Neurospecific receptor kinase) [DRSC07480] = 113
GLaz (Glial Lazarillo) [DRSC07431] = 144
Noc2 (Nucleolar complex protein 2) [DRSC03165] = 95.5
CG15403 [DRSC00417] = 90.3
Seipin [DRSC18654] = 138
Dhps (Deoxyhypusine synthase) [DRSC10948] = 99.6
CG32829 [DRSC00961] = 130
CG32829 [DRSC22805] = 115
